# Test results as given in US20220275075A1.
# Amino acid sequences for entries named in this document (tags omitted). A change or cut given only in a name is not applied to a line headed by its entry.
# UniProt Q8CI19: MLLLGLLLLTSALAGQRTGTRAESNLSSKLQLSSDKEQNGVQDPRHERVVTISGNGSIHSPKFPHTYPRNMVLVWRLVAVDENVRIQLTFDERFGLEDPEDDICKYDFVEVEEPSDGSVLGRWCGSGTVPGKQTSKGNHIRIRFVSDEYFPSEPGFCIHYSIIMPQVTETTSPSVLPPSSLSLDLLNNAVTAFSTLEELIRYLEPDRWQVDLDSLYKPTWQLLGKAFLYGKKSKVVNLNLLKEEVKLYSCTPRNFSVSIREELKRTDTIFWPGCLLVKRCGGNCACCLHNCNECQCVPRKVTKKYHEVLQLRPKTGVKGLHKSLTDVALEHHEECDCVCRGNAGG
# These are yes or no findings as the source states them, for the method shown. Some results given as binding are weak or reduced against the parent protein; the word gives no strength.
# Tests used:
# [1] = target: mouse PDGF-C core protein (mouse) (UniProt Q8CI19); test: immunoblot (FIG. 2B)
# [2] = target: mouse PDGF-C core protein (mouse) (UniProt Q8CI19); test: immunoblot of COS-1 supernatant with mouse PDGF-C core, probed with purified antibody
binder,measurement,setting,value
"monoclonal antibody 12F5 (antibody, mouse IgG2a, V domains shown) VH: EVKLEESGGGLVQPGGSRELSCEGSGFTFSGFWMSWVRQTPGKTLEWIGDINSDGSAIIYAPSIKDRFTIFRDNDKSTLYLQMNNVRSEDTATYFCMRWGYYGSNYFDYWGQGTTLTVSS VL: DVVMTQTPLSLPVSLGDQASISCRSSQSIVHSNGNTYLHWYLQKPGQSPKLLIYRVSNRFSGVPDRFSGSGSGTDFTLKISRVEAEDMGVYYCFQGTHVPFTFGSGTKLEIKR",binding,[1],binds
same,binding,[2],binds
